{
  "source": "PubChem BioAssay AID488913",
  "about": "(National Center for Advancing Translational Sciences (NCATS), 2010)",
  "note": "Inconclusive means that the source gave no clear call. Such entries were picked first, then a sample of the others. Potencies beside an inconclusive call are fits to weak or partial responses and may not hold up. Active and inactive are the calls of the source. Calls follow the shape of the dose curve; as a rule, active = well fitted inhibition curve with a large enough effect; inconclusive = small, poorly fitted or top-dose-only effect, or effect the other way; inactive = no such curve, though single readings can be large or run the other way.",
  "data": [
    {"assay": "Confirmation Concentration-Response Assay for lipid storage modulators: for probe SAR", "conditions": "Drosophila S3 cells, BODIPY lipid droplet fluorescence, 18-24 h; series mostly up to 46.1 µM", "excerpt": "NIH Molecular Libraries Probe Production Centers Network [MLPCN] NIH Chemical Genomics Center [NCGC] MLPCN Grant: 1 R03 MH085686-01 Assay Submitter (PI): Beller, Mathias; Max-Planck-Institut fur Biophysikalische Chemie NCGC Assay Overview: Storing lipids as a reservoir for energy or the anabolism of elementary metabolites is a common feature of probably all cells and is conserved from bacteria to humans. The universal cellular lipid storage organelle is the so-called lipid storage droplet (LD). Although ubiquitous, LDs share a simple structure composed of a hydrophobic core that harbors the storage lipids, which is shielded by a droplet-specific phospholipid monolayer to which proteins are attached. The current model of LD biogenesis involves an incorporation of the lipid core into the membrane leaflets of the endoplasmic reticulum (ER) followed by a subsequent budding-like maturation of a LD, which ultimately pinches off. Once released, LD volume can increase by localized lipogenesis or fusion of existing droplets. Storage lipids are re-mobilized enzymatically by lipase activity. Lipase regulation in the adipocyte is heavily studied and involves multiple components including catecholamine signaling, the LD-associated proteins Perilipin and comparative gene identification-58 (CGI-58) and at least two lipases named hormone sensitive lipase (HSL) and adipocyte triglyceride lipase (ATGL). LD regulation outside of the adipocyte is poorly understood and only few components are known. However, there is an urgent need to learn more about ectopic fat depots as mislocalized storage of lipids, for example in the liver or muscle, is an eminent health problem associated with insulin resistance or the metabolic syndrome. We developed a laser-scanning cytometer assay to enable 1,536-well screening and combined the results of the small molecules screen with an RNAi database based on lipid storage.\nWe dispensed 4 uL of cells at 1.25 x 10^6 cells/mL into LoBase Aurora COC 1,536-well plates (black walled, clear bottom) with a bottle-valve solenoid-based dispenser (Aurora) to obtain 5,000 cells/well. Triacsin C (Sigma-Aldrich T-4540), an inhibitor of long-chain fatty acyl CoA synthetase that blocks synthesis of triglycerides, was used as a positive control for lipid under-storage. A total of 23 nL of compound solution of different concentrations were transferred to the assay plates using a Kalypsys pin tool equipped with a 1,536-pin array containing 10-nL slotted pins (FP1S10, 0.457-mm diameter, 50.8 mm long; V&P Scientific). One microliter of oleic acid (400 uM) was added, and the plate was lidded with stainless steel rubber gasket lined lids containing pinholes. After 18-24 h incubation at 24 degree Celsius and 95% humidity, 4 uL of the dyes BODIPY 493/503 (Molecular Probes) and the Cell Tracker Red CMTPX dye (Molecular Probes) were added to the wells to stain lipid droplets and enumerate cell number, respectively. Fluorescence was detected by excitation of the fluorophores with a 488-nm laser on an Acumen Explorer (TTP Lab Tech). The total intensity in channel 1 (500-530 nm) reflected lipid droplet accumulation. Cells were detected using channel 3 (575- 640 nm) with 5-um width and 100-um depth filters. The ratio of the total intensity in PMT channel 1 over total intensity of channel 3 was also calculated. […]", "values": [
      {"compound": "CCOc1ccc(CCNC(=O)c2ccccc2)cc1OCC", "Potency": "inactive"},
      {"compound": "CCC/C=C/C/C=C/C=C/C=N/NN=O", "Potency": "active: 0.791 µM"},
      {"compound": "CCOc1ccc(CCNC(=O)c2cc3sccc3n2Cc2ccc(F)cc2F)cc1OCC", "Potency": "active: 0.056 µM"},
      {"compound": "CCOc1ccc(CCNC(=O)c2ccc(Oc3ccccc3)cc2)cc1OCC", "Potency": "inconclusive: 8.29 µM [activator, full curve, poor fit]"},
      {"compound": "CCOc1ccc(CCNC(=O)c2ccc(C(=O)c3ccccc3)cc2)cc1OCC", "Potency": "inconclusive: 7.91 µM [activator, partial curve, poor fit]"}
    ]}
  ]
}
